In PMC3267021, “The Molecular Basis for the Endocytosis of Small R-SNAREs by the Clathrin Adaptor CALM” (Cell, 2011):
Residue numbers refer to the chain shown, from its start. These are yes or no findings as the source states them, for the method shown. Some binding calls cover weakened binding; strength is not graded here. For some of these results: Tags and fused reporters may be left off the sequences shown. Values belong to the molecule of their own block, whether it stands above or below them.

Chains of the proteins cited; added tags and fusions are not shown. Residues count along the entry.
UniProt P63027, residues 1-96: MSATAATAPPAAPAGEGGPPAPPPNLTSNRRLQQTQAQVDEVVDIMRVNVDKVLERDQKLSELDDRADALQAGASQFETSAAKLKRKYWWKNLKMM
UniProt Q9Y6I3, residues 1-163: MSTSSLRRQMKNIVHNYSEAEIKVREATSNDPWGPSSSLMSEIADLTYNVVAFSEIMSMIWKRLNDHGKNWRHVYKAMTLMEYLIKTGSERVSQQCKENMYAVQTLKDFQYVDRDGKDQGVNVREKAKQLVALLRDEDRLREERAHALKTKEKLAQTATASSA

Assays:
[1] = target: GST-VAMP2 (VAMP2 residues 1-96) (human) (UniProt P63027); assay: ITC; VPiTC; 2 mM His6MycCALM_(ANTH) (WT or mutant) or GST cleaved Epsin_(ENTH) titrated in 37 injections of 4-8 μL into 0.15 mM GST-SNARE in the cell; 100 mM HEPES pH 7.4, 150 mM NaCl, 4 mM DTT; legends give a representative run with SEM of the fit, the text the average of all runs; both purified
[2] = target: T1, GST-VAMP8 (VAMP8 residues 1-76, full cytoplasmic portion) (mouse) (UniProt O70404); assay: as above
T1 sequence: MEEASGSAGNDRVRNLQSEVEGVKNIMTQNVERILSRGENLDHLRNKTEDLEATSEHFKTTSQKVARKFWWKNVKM

[3] = target: T2, GSTVAMP8 K24AM27A (mouse, UniProt O70404 1-76, K24A | M27A); assay: pull-down; GST-tagged bait (SNARE or preformed, purified 1:1:1 SNARE complex, 2 nmoles) on glutathione beads, His6Myc-tagged prey; 20 mM HEPES pH 7.4, 150 mM NaCl, 4 mM DTT, 4 mM β-mercaptoethanol, 0.1% NP-40, 0.05% BSA; 4°C overnight; Coomassie gel and anti-myc western blot; both purified
T2 construct: VAMP8, mouse, residues 1-76; pGEX 4T2 VAMP8_(1-76) (mouse) 'and mutants thereof'; also called K24AM27A VAMP8; Lys24AlaMet27Ala mutant of VAMP8; source: E. coli BL21(DE3) pLysS, purified (glutathione sepharose, S200 gel filtration)
T2 sequence (looked up): T1 sequence with K24A, M27A

[4] = target: T3, GSTVAMP8 K24A (mouse) (UniProt O70404); assay: as above
T3 sequence: T1 sequence with K24A

[5] = target: T4, GSTVAMP8 K24AM27A:SNAP23:Syntaxin3(195-253) SNARE complex (mouse | human) (UniProt O70404+O00161+Q13277); assay: as above
T4 sequence 1: T1 sequence with K24A, M27A
T4 sequence 2: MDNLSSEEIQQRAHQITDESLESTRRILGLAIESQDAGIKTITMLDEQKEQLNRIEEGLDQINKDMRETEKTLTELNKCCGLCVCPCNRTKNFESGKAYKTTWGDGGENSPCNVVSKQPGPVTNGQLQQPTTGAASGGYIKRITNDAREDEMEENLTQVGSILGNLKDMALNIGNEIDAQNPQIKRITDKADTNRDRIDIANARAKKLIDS
T4 sequence 3: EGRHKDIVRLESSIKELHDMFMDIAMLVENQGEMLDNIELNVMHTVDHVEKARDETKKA

[6] = target: T5, GSTVAMP8 L16PV23P (mouse) (UniProt O70404); assay: as above
T5 sequence: T1 sequence with L16P, V23P

[7] = target: T6, GSTVAMP8 M27A (mouse) (UniProt O70404); assay: as above
T6 sequence: T1 sequence with M27A

[8] = target: T7, GSTVAMP8:SNAP23:Syntaxin3(195-253) SNARE complex (wt VAMP8) (mouse | human) (UniProt O70404+O00161+Q13277); assay: as above
T7 sequence 1: T1 sequence
T7 sequence 2: T4 sequence 2
T7 sequence 3: T4 sequence 3

[9] = target: T2, GSTVAMP8 K24AM27A; assay: ITC; VPiTC; 2 mM His6MycCALM_(ANTH) (WT or mutant) or GST cleaved Epsin_(ENTH) titrated in 37 injections of 4-8 μL into 0.15 mM GST-SNARE in the cell; 100 mM HEPES pH 7.4, 150 mM NaCl, 4 mM DTT; legends give a representative run with SEM of the fit, the text the average of all runs; both purified
[10] = target: T5, GSTVAMP8 L16PV23P (mouse); assay: as above
[11] = target: T1, GST-VAMP8 (VAMP8 residues 1-76, full cytoplasmic portion) (mouse); assay: SPR; GST VAMP8 coupled directly to a CM5 chip; 200 nM analyte for 60 s at 30 μl/min; 20 mM HEPES pH 7.4, 150 mM NaCl, 4 mM DTT; Biacore 3000, 20°C; mock channel (GST) subtracted; both purified
[12] = target: GST-VAMP2 (VAMP2 residues 1-96) (human) (UniProt P63027); assay: pull-down; GST-tagged bait (SNARE or preformed, purified 1:1:1 SNARE complex, 2 nmoles) on glutathione beads, His6Myc-tagged prey; 20 mM HEPES pH 7.4, 150 mM NaCl, 4 mM DTT, 4 mM β-mercaptoethanol, 0.1% NP-40, 0.05% BSA; 4°C overnight; Coomassie gel and anti-myc western blot; both purified
[13] = target: T1, GST-VAMP8 (VAMP8 residues 1-76, full cytoplasmic portion) (mouse); assay: as above

Molecule: Epsin1_(ENTH) (ENTH domain of epsin1, residues 1-163), GST cleaved (from UniProt Q9Y6I3 1-163) (domain or fragment)
binding [1]: no binding (tested: 2 mM titrated into 0.15 mM GST-SNARE)
binding [2]: no binding (tested: 2 mM titrated into 0.15 mM GST-SNARE)

binding [3]: no binding
binding [4]: binds weakly
binding [5]: no binding
binding [6]: no binding
binding [7]: no binding
binding [8]: no binding
B1: His6MycCALM_(ANTH) (CALM ANTH domain, residues 1-289) (domain or fragment, UniProt O55012 1-289)
chain: MSGQSLTDRITAAQHSVTGSAVSKTVCKATTHEIMGPKKKHLDYLIQCTNEMNVNIPQLADSLFERTTNSSWVVVFKSLITTHHLMVYGNERFIQYLASRNTLFNLSNFLDKSGLQGYDMSTFIRRYSRYLNEKAVSYRQVAFDFTKVKRGADGVMRTMNTEKLLKTVPIIQNQMDALLDFNVNSNELTNGVINAAFMLLFKDAIRLFAAYNEGIINLLEKYFDMKKNQCKEGLDIYKKFLTRMTRISEFLKVAEQVGIDRGDIPDLSQAPSSLLDALEQHLASLEGKK
binding [9]: no binding (tested: 2 mM titrated into 0.15 mM GST-SNARE)
binding [10]: no binding (tested: 2 mM titrated into 0.15 mM GST-SNARE)

binding [11]: no binding (tested: 200 nM)
binding [12]: no binding
binding [13]: no binding
B2: His6MycAP180_(ANTH) (AP180 ANTH domain, residues 1-304) (domain or fragment, UniProt Q61548 1-304)
chain: MSGQTLTDRIAAAQYSVTGSAVARAVCKATTHEVMGPKKKHLDYLIQATNETNVNIPQMADTLFERATNSSWVVVFKALVTTHHLMVHGNERFIQYLASRNTLFNLSNFLDKSGSHGYDMSTFIRRYSRYLNEKAFSYRQMAFDFARVKKGADGVMRTMVPEKLLKSMPILQGQIDALLEFDVHPNELTNGVINAAFMLLFKDLIKLFACYNDGVINLLEKFFEMKKGQCKDALEIYKRFLTRMTRVSEFLKVAEQVGIDKGDIPDLTQAPSSLMETLEQHLNTLEGKKPGNNEGSGAPSPLSK
